Measured values from the supplement of paper PMC3334620.
Over roughly 33,000 sequences, “E-score (-0.5 to 0.5)” has its median near -8e-05; the highest 2% begin near 0.23. This is one part of the list.

Target: T1, Nrg2 (UniProt P38082)
T1 sequence: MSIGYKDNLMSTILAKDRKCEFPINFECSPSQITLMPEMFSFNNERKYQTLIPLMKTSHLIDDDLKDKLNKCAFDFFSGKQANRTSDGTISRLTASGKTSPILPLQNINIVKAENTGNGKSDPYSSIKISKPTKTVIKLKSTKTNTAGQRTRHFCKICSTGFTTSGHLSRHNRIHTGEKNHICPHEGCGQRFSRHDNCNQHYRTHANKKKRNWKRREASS
Assay: PBM E-score (8-mer binding enrichment) (E-score (-0.5 to 0.5)); higher = stronger / more preferred TF binding
Settings: protein concentration: 100 nM; construct: GST-full length
Description: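 Universal 'all 10-mer' protein binding microarrays (Agilent AMADID 015681) probed with GST-tagged S. cerevisiae TFs (full-length or DBD) made by in vitro transcription/translation (PURExpress), about 100-200 nM. Bound TF was detected with fluorescent anti-GST. Each ungapped 8-mer (which stands for itself and its reverse complement) is scored by the PBM enrichment score (E-score), a modified Wilcoxon-Mann-Whitney statistic from -0.5 to +0.5, computed with the Universal PBM Analysis Suite. Scale: above 0.35 generally sequence-specific binding.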

Row | Sequence | PBM E-score
1 | TCTACGAA | -0.167
2 | TCTGCAGA | -0.0464
3 | AGATCTAG | -0.065
4 | AGCATACT | -0.122
5 | ATTTGATA | 0.177
6 | CTCGTACC | -0.108
7 | CCATACTA | 0.127
8 | GCCTCGAC | -0.139
9 | ACGTAAGG | -0.0233
10 | AGTGGGAG | 0.0845
11 | AGTGTCGC | -0.0707
12 | ACAACCTG | -0.125
13 | ATAGATAT | 0.106
14 | ATACACCA | -0.096
15 | CTACCGAC | -0.0909
16 | ATTTTGAC | 0.232
17 | AAAACGGT | -0.0171
18 | GCCCAGCC | -0.00793
19 | GACTATAA | -0.0537
20 | AACCACCC | -0.189
21 | ACTGATCC | -0.00186
22 | CAATTACG | -0.125
23 | AATCACAG | 0.0446
24 | AAACAAAT | 0.235
25 | GCAAAACC | 0.0964

7 records picked at random from those above:
Row | Sequence | PBM E-score
25 | GCAAAACC | 0.0964
4 | AGCATACT | -0.122
14 | ATACACCA | -0.096
20 | AACCACCC | -0.189
7 | CCATACTA | 0.127
9 | ACGTAAGG | -0.0233
8 | GCCTCGAC | -0.139

Continued.

Row | Sequence | PBM E-score
26 | CTGAAACC | 0.114
27 | CCCTAGAA | 0.12
28 | ACACGTAT | -0.0391
29 | CAGAACGG | -0.0884
30 | CGTCCCGA | -0.221
31 | AAGTACCT | -0.135
32 | CGAAATTC | -0.0122
33 | ATGCTGGC | 0.0313
34 | ACGATCAC | -0.00414
35 | AACTGCTT | -0.161
36 | CGGAAATA | 0.219
37 | ATTGGTTA | 0.174
38 | AATAGCCC | -0.0669
39 | TACGCGGA | -0.0704
40 | ACGCCGCG | -0.0401
41 | AGAATGTA | 0.0349
42 | GGTTGCAA | 0.111
43 | CCCGAACA | 0.0929
44 | ACATAACG | -0.00772
45 | CCTTTATA | -0.161
46 | CCCCGTGC | 0.0799
47 | CGCGTACC | -0.0867
48 | TACGACAA | 0.204
49 | CTACAGTC | -0.184
50 | ATCGCGGA | 0.0327

Row | Sequence | PBM E-score
51 | AGCCTTTA | -0.239
52 | GTGCGAAC | -0.145
53 | AGAAGATG | -0.0535
54 | ACAGGTAT | 0.134
55 | ACCACTCC | -0.0901
56 | AGATCCGG | -0.22
57 | CCATGTTC | 0.0851
58 | GACGCGAA | -0.106
59 | AAAAGAAT | 0.187
60 | ACGCACGT | -0.0699
61 | ACGATAGA | -0.101
62 | ACCTTTTC | -0.0658
63 | TCTAAAAA | -0.192
64 | CTGCAGTA | -0.184
65 | TGAAAGAA | 0.134
66 | CCCGCCGC | 0.158
67 | GTTTGACA | 0.0591
68 | CGGGTAGA | -0.192
69 | AAGGGGAG | -0.0858
70 | CATCACCA | 0.12
71 | CCTCCACG | -0.345
72 | ATTTGCGA | 0.0669
73 | GCCGCAGC | -0.0577
74 | ACCTCATG | -0.171
75 | GGAGAATA | 0.123

Row | Sequence | PBM E-score
76 | GCGGGTGA | 0.0623
77 | GTTTTAAA | 0.122
78 | CGTGCGGC | -0.00739
79 | CAGAAGCG | 0.112
80 | ACCGTAGC | -0.169
81 | GTGTCCAA | 0.0631
82 | GTAATTAC | 0.14
83 | TAGTTGCA | 0.121
84 | CGTCAACC | -0.204
85 | GATATTTA | -0.00686
86 | CCACGACA | -0.0789
87 | CAGGGAGG | -0.0425
88 | CTGTTATC | 0.0631
89 | ACGCTGGA | 0.00129
90 | AAACGTCA | -0.103
91 | CCACTACG | -0.0895
92 | GGTGGGCA | -0.042
93 | GAGACAGA | 0.14
94 | ATTCGGTC | 0.0208
95 | CAACGCGA | 0.164
96 | GTTGGCCA | -0.0399
97 | GAACGAGA | 0.016
98 | ACCGCGCA | 0.11
99 | ACGGACGC | -0.0737
100 | ATCATCAG | 0.0405

Row | Sequence | PBM E-score
101 | TATGTAAA | 0.103
102 | CCGGCGCG | -0.0793
103 | CGGTTGGA | -0.0354
104 | AACAAGCA | 0.101
105 | CCGCTTCG | -0.259
106 | AGTATCAA | 0.225
107 | ATTGCAGG | 0.158
108 | TTTACAAA | 0.0163
109 | AGATGGTG | -0.0597
110 | ATTGAAAT | 0.161
111 | CGCAAAAC | 0.0615
112 | ACTGCACT | -0.00829
113 | CACGAATG | 0.156
114 | CATGACCG | -0.108
115 | CTTGAGAC | -0.0469
116 | ATAGGTAA | 0.102
117 | AGACCTCT | -0.181
118 | ACGCCTTC | -0.136
119 | AGACAGCT | 0.12
120 | AGTTAATA | 0.145
121 | GCACCCGC | -0.0112
122 | CTCACCGC | -0.0705
123 | CGAATCGC | -0.0917
124 | AGGGTGAT | 0.143
125 | ATCCTGCG | -0.109

Row | Sequence | PBM E-score
126 | CATTATTC | 0.133
127 | TCCTTCCA | -0.237
128 | GGGAAGAA | -0.136
129 | ATAGGTCG | 0.0448
130 | ACACAAGG | -0.0552
131 | CATCGTCG | -0.00682
132 | ACTGCACA | -0.0855
133 | ATGCCCAT | -0.093
134 | CGAAGACC | 0.0649
135 | CTTTGAGC | -0.135
136 | ATCCCCGG | -0.0668
137 | AGTCGCCA | -0.129
138 | CTCTTAAG | 0.00878
139 | GTATTCAC | 0.131
140 | TCTCGTAA | 0.0488
141 | ATGCTACG | 0.0764
142 | AAACGTAC | -0.0531
143 | CCCAGTCG | -0.143
144 | GTTCTGCA | 0.0907
145 | ATACGTAG | 0.0138
146 | GAGCATAA | 0.141
147 | AAATTTAA | 0.0888
148 | AATTTCTG | 0.0538
149 | ACTCAGCC | -0.112
150 | CCGTGCTA | -0.188

Exported with each value named: entries from further up.
AGATCCGG
  PBM E-score: -0.22
CCATGTTC
  PBM E-score: 0.0851
GACGCGAA
  PBM E-score: -0.106
AAAAGAAT
  PBM E-score: 0.187

(next part)

Row | Sequence | PBM E-score
151 | ACGAGCTG | 0.215
152 | CCATAGGC | -0.133
153 | CTTCTGAC | -0.105
154 | CAAGCGCA | 0.363
155 | ATCACAGG | -0.0499
156 | ACATGAAC | 0.0132
157 | TGCTCCAA | 0.0197
158 | CCACCAAC | -0.0118
159 | TAAAGACA | -0.014
160 | GAATGCTC | -0.0761
161 | CGCCTCTC | -0.318
162 | CAGGCTGA | -0.156
163 | CTCATAAC | -0.0907
164 | ATGACAAT | 0.172
165 | ACCGGCGT | -0.0447
166 | ATGAATGC | 0.13
167 | TCGCTACA | -0.251
168 | ACGCACTC | -0.0434
169 | AAACTTGA | -0.027
170 | AGTAGCAT | 0.0324
171 | AAGACTCA | -0.249
172 | AGTTGCAA | 0.119
